Results are given in words; binding and its absence hold for the method and conditions named. A result given as binding can be weak or reduced; the word gives no strength.
Target: TMEM55B_(80-166)2CysMUT (UniProt Q86T03)
Assay: crystal structure; TMEM55B_(80-166)2CysMUT with RILPL1 391-403 peptide; 0.05M KSCN, 0.1M Tris pH 8.5, 18% PEG5000/MME; 1.55 Å; both purified

Amino acid sequences for entries named in this document (tags omitted). A change or cut given only in a name is not applied to a line headed by its entry.
UniProt Q86T03: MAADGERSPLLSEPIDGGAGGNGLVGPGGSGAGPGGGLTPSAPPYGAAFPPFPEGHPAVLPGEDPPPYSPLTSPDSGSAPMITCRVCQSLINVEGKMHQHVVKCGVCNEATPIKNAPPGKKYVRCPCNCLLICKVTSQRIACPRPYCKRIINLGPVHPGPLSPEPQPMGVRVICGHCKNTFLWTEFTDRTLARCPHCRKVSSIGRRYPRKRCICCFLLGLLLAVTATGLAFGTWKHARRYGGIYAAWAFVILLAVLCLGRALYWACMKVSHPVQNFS

B1: RILPL1 391-403 peptide (peptide)
peptide: GYTEQGQEALQHL
Question: B1 was tested. Which binding did it give?
Answer: binds

From article doi:10.1101/2025.08.19.670962, “Structural basis for binding of RILPL1 to TMEM55B reveals a lysosomal platform for adaptor assembly through a conserved TBM motif” (bioRxiv, 2025)
